# Assay results published in patent publication US20230226061A1, “COMBINATION CANCER THERAPY WITH DYRK1 INHIBITORS AND INHIBITORS OF THE RAS-RAF-MEK-ERK (MAPK) PATHWAY” (Felicitex Therapuetics, Inc., priority 2022, published 2023).
# For at least one compound, name, drawing or mass did not settle the structure.
# What was measured:
# [1] = system: colon cancer SW620 cells (G12V); experiment: FACS analysis of cell cycle distribution (acridine orange), SW620; type: cell-based; settings: SW620, 20 nM trametinib alone, 24 hours
# Protocol: SW620 cells were cultured, treated, and analyzed as described in Example 1. The results when different concentrations of trametinib, Compound I-7, or both trametinib and Compound I-7 are present are shown in FIG. 10.
# [2] = system: DYRK1B, MAPK, p27 in SW620 cells; experiment: Western blot analysis of protein expression in SW620 cells; type: cell-based; settings: SW620, 20 nM trametinib alone
# Protocol: For Western Blot analysis cells were seeded into 6-well plates at 5×10^5-9×10^5 cells/well (depending on the cell size and rate of proliferation), allowed to attach for 24 hours, then treated with compounds for 24 hours, and harvested. Immunoblotting was performed using conventional techniques, as described in Cell Signaling Technologies Western Blotting protocol (www.cellsignal.com).
# Antibodies used for blotting were from Cell Signaling Technology (CST): DYRK1B (D40D1) Rabbit mAb #5672; β-Actin (13E5) Rabbit mAb #4970; Anti-rabbit IgG, HIRP-linked Antibody #7074. The Primary Antibody Dilution Buffer 1×TBST with 5% BSA (CST #9998) was used. For detection, SignalFire™ ECL Reagent (CST #6883) was used.
# The expression levels of DYRK1B, ph-t202 MAPK, total MAPK, ph-S10 p27, total p27 and β-actin in SW620 cells following the 24 hours treatment with trametinib or combination of trametinib and compound I-7 as observed by Western blot analysis are shown in FIG. 13. The expression of DYRK1B protein was compared to that in untreated cells incubated in regular growth medium containing FBS (FBS+) or serum free medium (FBS−), single treatment with trametinib to the treatment with combination of trametinib and compound I-7.
smiles,measurement,setting,value
CC(=O)Nc1cccc(-n2c(=O)n(C3CC3)c(=O)c3c(Nc4ccc(I)cc4F)n(C)c(=O)c(C)c32)c1 [trametinib],fraction of cells in quiescent (G0) state,[1],even more effective than serum starvation (FBS−) at inducing a large fraction of the cells into the quiescent (G0) state
same,MAPK expression (Western blot),[2],suppressed the MAPK expression
same,expression of p27 (Western blot),[2],induced the expression of p27
same,phosphorylation of p27 (Western blot),[2],induced the phosphorylation of p27
same,expression of DYRK1B protein (Western blot),[2]; vs serum starvation,induced expression of DYRK1B protein even higher than that produced by serum starvation
